{"sequences": {"note": "Amino acid sequences for entries named in this document (tags omitted).", "UniProt P06401": "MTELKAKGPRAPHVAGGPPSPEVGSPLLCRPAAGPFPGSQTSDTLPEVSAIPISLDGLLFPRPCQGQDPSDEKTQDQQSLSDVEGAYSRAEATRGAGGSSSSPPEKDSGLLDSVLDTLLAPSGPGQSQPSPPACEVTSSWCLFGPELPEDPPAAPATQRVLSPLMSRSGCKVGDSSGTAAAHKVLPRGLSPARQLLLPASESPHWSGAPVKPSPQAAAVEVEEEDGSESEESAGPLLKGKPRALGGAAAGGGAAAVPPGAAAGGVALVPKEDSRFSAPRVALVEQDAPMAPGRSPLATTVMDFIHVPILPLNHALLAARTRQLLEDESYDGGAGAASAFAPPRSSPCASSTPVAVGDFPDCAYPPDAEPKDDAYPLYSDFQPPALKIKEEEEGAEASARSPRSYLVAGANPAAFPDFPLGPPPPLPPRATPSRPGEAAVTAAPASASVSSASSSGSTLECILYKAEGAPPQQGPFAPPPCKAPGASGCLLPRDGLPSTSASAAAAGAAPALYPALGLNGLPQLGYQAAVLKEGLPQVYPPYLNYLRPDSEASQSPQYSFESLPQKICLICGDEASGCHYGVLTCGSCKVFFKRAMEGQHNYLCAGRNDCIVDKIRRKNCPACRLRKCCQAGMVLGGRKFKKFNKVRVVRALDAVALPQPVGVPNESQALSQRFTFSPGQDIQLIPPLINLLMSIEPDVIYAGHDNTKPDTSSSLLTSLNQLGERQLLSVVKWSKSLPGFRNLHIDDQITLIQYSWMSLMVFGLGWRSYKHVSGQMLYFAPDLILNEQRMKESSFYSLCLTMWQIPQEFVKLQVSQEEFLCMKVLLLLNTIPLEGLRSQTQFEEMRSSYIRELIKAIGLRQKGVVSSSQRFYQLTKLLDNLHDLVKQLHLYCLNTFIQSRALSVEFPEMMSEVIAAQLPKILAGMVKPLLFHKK", "UniProt Q62318": "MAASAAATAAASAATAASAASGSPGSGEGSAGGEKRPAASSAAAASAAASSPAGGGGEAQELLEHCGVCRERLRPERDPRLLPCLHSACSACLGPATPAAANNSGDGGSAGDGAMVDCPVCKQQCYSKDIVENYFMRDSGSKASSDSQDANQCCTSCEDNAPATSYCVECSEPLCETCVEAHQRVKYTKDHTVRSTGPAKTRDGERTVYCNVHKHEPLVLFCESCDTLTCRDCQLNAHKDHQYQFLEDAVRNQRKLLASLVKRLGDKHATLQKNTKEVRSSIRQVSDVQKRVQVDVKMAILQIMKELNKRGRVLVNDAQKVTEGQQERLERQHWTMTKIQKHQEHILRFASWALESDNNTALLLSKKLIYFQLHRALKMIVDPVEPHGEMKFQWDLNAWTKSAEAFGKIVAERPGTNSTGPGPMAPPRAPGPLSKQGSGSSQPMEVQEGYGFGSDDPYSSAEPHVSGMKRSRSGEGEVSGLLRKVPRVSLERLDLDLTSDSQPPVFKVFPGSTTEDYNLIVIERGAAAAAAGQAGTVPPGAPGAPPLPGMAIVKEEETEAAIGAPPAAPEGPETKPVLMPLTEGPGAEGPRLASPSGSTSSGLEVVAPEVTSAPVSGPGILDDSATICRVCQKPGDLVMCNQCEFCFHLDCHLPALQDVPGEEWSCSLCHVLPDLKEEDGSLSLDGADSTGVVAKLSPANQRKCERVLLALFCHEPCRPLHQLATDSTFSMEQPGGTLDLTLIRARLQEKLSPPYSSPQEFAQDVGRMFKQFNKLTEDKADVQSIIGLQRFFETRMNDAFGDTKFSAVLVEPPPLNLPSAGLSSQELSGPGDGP", "UniProt Q00175": "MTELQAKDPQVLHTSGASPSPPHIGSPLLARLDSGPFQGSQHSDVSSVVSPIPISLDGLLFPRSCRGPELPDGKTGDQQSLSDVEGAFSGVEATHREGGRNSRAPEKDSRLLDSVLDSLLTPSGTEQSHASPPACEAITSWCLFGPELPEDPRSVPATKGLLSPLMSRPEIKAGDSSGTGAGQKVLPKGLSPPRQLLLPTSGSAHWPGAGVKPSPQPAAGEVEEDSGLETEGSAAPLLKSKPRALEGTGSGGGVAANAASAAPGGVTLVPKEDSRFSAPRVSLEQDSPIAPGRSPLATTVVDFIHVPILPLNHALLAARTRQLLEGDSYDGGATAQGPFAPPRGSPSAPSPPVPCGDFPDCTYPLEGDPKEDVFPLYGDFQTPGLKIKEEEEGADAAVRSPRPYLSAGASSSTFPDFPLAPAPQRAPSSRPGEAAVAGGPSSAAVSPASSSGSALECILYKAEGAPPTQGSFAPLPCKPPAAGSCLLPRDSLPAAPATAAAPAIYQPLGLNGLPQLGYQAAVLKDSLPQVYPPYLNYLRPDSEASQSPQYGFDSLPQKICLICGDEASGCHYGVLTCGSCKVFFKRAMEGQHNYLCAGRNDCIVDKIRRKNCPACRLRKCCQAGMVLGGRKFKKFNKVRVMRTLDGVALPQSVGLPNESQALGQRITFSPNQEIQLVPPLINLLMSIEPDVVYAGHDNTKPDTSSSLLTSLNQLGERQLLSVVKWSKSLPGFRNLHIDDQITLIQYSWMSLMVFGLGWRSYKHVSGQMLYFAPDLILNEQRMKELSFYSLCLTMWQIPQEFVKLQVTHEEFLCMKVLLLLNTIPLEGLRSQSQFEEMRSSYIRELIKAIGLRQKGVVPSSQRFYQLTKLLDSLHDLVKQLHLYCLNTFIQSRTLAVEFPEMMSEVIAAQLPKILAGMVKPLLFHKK", "UniProt Q13263": "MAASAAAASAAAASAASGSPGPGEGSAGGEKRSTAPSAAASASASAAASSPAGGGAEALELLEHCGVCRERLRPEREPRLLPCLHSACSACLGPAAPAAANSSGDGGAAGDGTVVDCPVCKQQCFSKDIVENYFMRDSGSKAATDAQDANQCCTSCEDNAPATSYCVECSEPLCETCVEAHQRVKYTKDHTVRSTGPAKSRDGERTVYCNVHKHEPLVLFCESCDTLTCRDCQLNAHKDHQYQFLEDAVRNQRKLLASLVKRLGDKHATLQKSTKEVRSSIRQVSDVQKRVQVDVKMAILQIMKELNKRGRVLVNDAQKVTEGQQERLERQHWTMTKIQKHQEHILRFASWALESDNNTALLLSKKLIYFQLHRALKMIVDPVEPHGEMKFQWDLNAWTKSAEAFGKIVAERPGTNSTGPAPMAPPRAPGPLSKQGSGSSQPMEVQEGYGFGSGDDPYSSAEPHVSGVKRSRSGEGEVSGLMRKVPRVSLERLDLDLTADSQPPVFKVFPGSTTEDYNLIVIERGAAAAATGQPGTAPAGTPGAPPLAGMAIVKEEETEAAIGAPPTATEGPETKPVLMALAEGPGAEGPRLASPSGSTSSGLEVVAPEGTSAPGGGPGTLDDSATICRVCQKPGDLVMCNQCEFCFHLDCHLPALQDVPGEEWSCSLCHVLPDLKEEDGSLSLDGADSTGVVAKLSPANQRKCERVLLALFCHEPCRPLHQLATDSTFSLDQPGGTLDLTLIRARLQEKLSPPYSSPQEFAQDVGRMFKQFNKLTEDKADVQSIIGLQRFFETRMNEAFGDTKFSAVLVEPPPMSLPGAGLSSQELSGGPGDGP", "UniProt P19785": "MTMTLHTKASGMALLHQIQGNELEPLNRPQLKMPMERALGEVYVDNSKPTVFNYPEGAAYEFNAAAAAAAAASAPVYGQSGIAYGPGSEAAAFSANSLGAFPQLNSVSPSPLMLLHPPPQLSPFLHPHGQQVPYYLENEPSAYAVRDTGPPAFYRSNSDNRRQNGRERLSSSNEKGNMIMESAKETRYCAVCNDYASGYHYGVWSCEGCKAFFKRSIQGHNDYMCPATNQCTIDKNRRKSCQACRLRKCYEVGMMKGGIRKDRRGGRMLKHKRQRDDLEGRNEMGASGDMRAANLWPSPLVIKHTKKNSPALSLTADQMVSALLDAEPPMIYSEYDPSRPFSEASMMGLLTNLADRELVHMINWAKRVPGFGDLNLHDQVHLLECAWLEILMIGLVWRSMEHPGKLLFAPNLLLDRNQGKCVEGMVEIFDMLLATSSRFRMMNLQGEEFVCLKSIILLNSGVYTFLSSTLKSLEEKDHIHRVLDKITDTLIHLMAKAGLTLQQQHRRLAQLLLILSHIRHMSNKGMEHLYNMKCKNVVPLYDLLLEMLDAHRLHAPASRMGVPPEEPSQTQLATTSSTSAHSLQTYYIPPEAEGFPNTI"}, "source": "paper PMC10393996", "key": {"[1]": {"target": "HA tagged human PGR-B (human) (UniProt P06401)", "assay": "co-IP; proteins from HeLa cells overexpressing HA tagged PGR-B and GFP tagged TRIM28; antibody at 4 °C overnight, Dynabeads Protein A, western blot"}, "[2]": {"target": "progesterone receptor (PR), endogenous in primary human endometrial stromal cells (human (endogenous in primary HESCs)) (UniProt P06401)", "assay": "co-IP; proteins from decidual primary HESCs, PR antibody or rabbit IgG at 4 °C overnight, Dynabeads Protein A, western blot"}, "[3]": {"target": "progesterone receptor (PR), endogenous in primary human endometrial stromal cells (human (endogenous in primary HESCs)) (UniProt P06401)", "assay": "proximity ligation; Duolink Proximity Ligation Assay with PR and TRIM28 antibodies in siNT or siTRIM28 treated pre-decidual and decidual HESCs; confocal microscopy"}, "[4]": {"target": "TRIM28, endogenous in mouse uterus (mouse (endogenous in uterus)) (UniProt Q62318)", "assay": "co-IP; proteins from D3.5 mouse uterus; antibody or rabbit IgG at 4 °C overnight, Dynabeads Protein A, western blot"}, "[5]": {"target": "progesterone receptor (PR), endogenous in mouse uterus (mouse (endogenous in uterus)) (UniProt Q00175)", "assay": "co-IP; proteins from D3.5 mouse uterus; antibody or rabbit IgG at 4 °C overnight, Dynabeads Protein A, western blot"}}, "note": "No constants are given. Whether binding was seen depends on the method and setting. In cells and extracts the contact can be indirect. Some entries that bind do so weakly or less than the wild type.", "data": [{"substance": "GFP tagged TRIM28 (from UniProt Q13263 1-835)", "values": [{"measurement": "binding", "setting": "[1]", "value": "binds"}]}, {"substance": "TRIM28 (Tripartite motif containing 28), endogenous in primary human endometrial stromal cells (from UniProt Q13263 1-835)", "values": [{"measurement": "binding", "setting": "[2]", "value": "binds"}, {"measurement": "binding", "setting": "[3]", "value": "binds"}]}, {"substance": "estrogen receptor α (ERα), endogenous in mouse uterus (from UniProt P19785 1-599)", "values": [{"measurement": "binding", "setting": "[4]", "value": "binds"}, {"measurement": "binding", "setting": "[5]", "value": "binds"}]}]}
